Source: patent publication US20200270627A1 (COMMONWEALTH SCIENTIFIC AND INDUSTRIAL RESEARCH ORGANISATION, published 2020)
No constants are given. Whether binding was seen depends on the method and setting. Binding seen in cells or lysates may run through a third protein. Some results given as binding are weak or reduced against the parent protein; the word gives no strength. Sequences can lack the tags named with a protein.

Target: T1, Sr50 1-163:CFP (rye (Secale cereale))
T1 sequence: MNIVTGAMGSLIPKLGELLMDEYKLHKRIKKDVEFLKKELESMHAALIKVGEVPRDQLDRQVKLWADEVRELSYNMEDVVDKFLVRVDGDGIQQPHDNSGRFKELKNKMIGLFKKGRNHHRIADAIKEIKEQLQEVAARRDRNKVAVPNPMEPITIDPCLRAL
Assay: co-immunoprecipitation with anti-GFP antibodies from N. benthamiana leaf cells

binding: binds
B1: Sr50 1-163:HA (other)
chain: MNIVTGAMGSLIPKLGELLMDEYKLHKRIKKDVEFLKKELESMHAALIKVGEVPRDQLDRQVKLWADEVRELSYNMEDVVDKFLVRVDGDGIQQPHDNSGRFKELKNKMIGLFKKGRNHHRIADAIKEIKEQLQEVAARRDRNKVAVPNPMEPITIDPCLRAL
notes: Transiently expressed in N. benthamiana leaf cells under the 35S promoter; also called full CC domain of Sr50 fused to a C-terminal HA tag; not shown: C-terminal HA tag (vector pBIN19-35S::GTW:3HA)
